Measurements from patent US12043674B2 (Auburn University, priority 2020, dated 2024).

Test: general procedure: Fmoc solid-phase peptide synthesis; Rink amide resin; HBTU/DIEA; HOAt/DIC for first amino acid and after proline
Conditions: cyclisation step

| Substance | outcome |
| --- | --- |
| NH2-APGAFE(CHO)Y | No product was observed under the reaction conditions. |
| H-APCA-aldehyde | No product was observed under the reaction conditions. |

Same assay, conditions: cyclisation step, 220 nm

| Substance | final HPLC purity |
| --- | --- |
| cyc(Pro-Val-Gly-Pro-Phe-Glu)-Tyr | >95% |
| cyc(Val-Val-Gly-Pro-Phe-Glu)Tyr) | >95% |
| cyc(Gln-Val-Gly-Pro-Phe-Glu)-Tyr | >95% |
| cyc(Asp-Phe-Pro-Glu)-Phe | >95% |
| cyc(Ala-Gly-Pro-Phe-Glu)-Tyr | >95% |
| cyc(Asn-Val-Gly-Ala-Phe-Glu)-Tyr | >95% |
| cyc(Asn-Phe-Pro-Phe-Glu)-Lys | >95% |
| cyc(Trp-Val-Gly-Pro-Phe-Glu)-Tyr | >95% |
| cyc(Pro-Phe-Pro-Glu)-Phe | >95% |
| cyc(Ala-Phe-Gly-Pro-Ala) | >95% |
| cyc(Val-Gly-Pro-Glu)-Phe | >95% |
| cyc(Gln-Phe-Pro-Tyr-Glu)-Met | >95% |
| cyc(Asn-Val-Gly-Pro-Phe-Glu)-Tyr (NVGPFEY; head-to-tail cyclic; Glu side-chain aldehyde; 1f and 2f) | >95% |
| cyc(Gln-Val-Gly-Ala-Phe-Glu)-Tyr | >95% |
| cyc(Ala-Phe-Pro-Glu)-Phe | >95% |
| cyc(Tyr-Phe-Pro-Glu)-Phe | >95% |
| cyc(Gln-Asp-Ile-Pro-Tyr-Leu-Glu)-Ser | >95% |
| cyc(Tyr-Val-Gly-Pro-Phe-Glu)-Tyr | >95% |
| cyc(Val-Phe-Pro-Glu)-Phe | >95% |
| cyc(Gln-Val-Gly-Pro-Phe-Phe-Gly) | >95% |
| cyc(Lys-Val-Gly-Pro-Phe-Glu)-Tyr | >95% |
| cyc(Ala-Val-Gly-Pro-Phe-Lys(CO)-Tyr | >95% |
| cyc(Gln-Gly-Pro-Glu)-Phe | >95% |
| cyc(Asn-Gly-Pro-Glu-Phe) | >95% |
| cyc(Asp-Val-Gly-Pro-Phe-Glu)-Tyr | >95% |
| cyc(Ala-Val-Gly-Ala-Phe-Glu-Tyr)-Ala) | >95% |
| cyc(Asn-Phe-Ile-Pro-Cys-Tyr-Glu)-His | >95% |
| cyc(Ala-Ile-Gly-Pro-Phe-Ala) | >95% |
| cyc(Ala-Lys-Gly-Pro-Asp-Gly-Arg-Ala)-Fluorescein isothiocyanate (FITC) | >95% |
| cyc(Ala-Gly-Pro-Glu)-Phe | >95% |

The same purity stands for every peptide and may come from a single statement.
